Measurements reported in PubChem BioAssay AID330 (DTP/NCI, 2004).
The list shows only some results of the screen, not a fair sample: it gathers tests that were run many times, whatever their T/C, doses with no T/C, and many T/C values between a quarter and a half above the control. Other doses and runs of a compound stand elsewhere. T/C: endpoint of the treated group in % of that of the vehicle group. Some doses have a count of surviving animals in place of a T/C: the source holds a T/C of zero for them, seemingly a mark for toxic or unscored doses. Some survivor counts are full or nearly so, which does not show that the dose was tolerated: survival well below the control is almost never listed, so the zero probably covers shortened survival too. Survivors were counted at the toxicity check, usually on the fifth day, unless a day is given; later deaths do not show. Schedules are NCI's codes, taken here to give the interval after Q, in days (D) or hours (H), and the number of doses after X. Some entries hold several experiments; their values stand side by side, smallest first. Where survival is the endpoint, the PubChem record calls one and a half times the control and up active, and a quarter to a half above the control has no call in these data; cut-offs in other NCI protocols can differ. Some T/C values carry the count of animals alive at the toxicity check (mostly the fifth day); without a count, all were alive then. Additions like (4×) say how often a value occurs here.

Test system: P388 leukemia ip, CD2F1 mice, survival T/C
Experiment: NCI In Vivo Anticancer Drug Screen. Data for tumor model P388 Leukemia (intraperitoneal) in CD2F1 (CDF1) mice
Conditions: T/C endpoint: median survival time, higher T/C = longer survival
[1] = dose: 200.0 mg/kg/injection, schedule: Q01DX005 (ip), vehicle: saline
[2] = dose: 200.0 mg/kg/injection, schedule: Q01DX005 (ip), vehicle: saline with Tween-80
[3] = dose: 50.0 mg/kg/injection, schedule: Q01DX009 (ip), vehicle: Klucel (hydroxypropylcellulose) (HPC)
[4] = dose: 100.0 mg/kg/injection, schedule: Q01DX009 (ip), vehicle: Klucel (hydroxypropylcellulose) (HPC)
[5] = dose: 200.0 mg/kg/injection, schedule: Q01DX009 (ip), vehicle: Klucel (hydroxypropylcellulose) (HPC)
[6] = dose: 100.0 mg/kg/injection, schedule: Q01DX005 (ip), vehicle: Klucel (hydroxypropylcellulose) (HPC)
[7] = dose: 240.0 mg/kg/injection, schedule: Q01DX005 (ip), vehicle: saline with Tween-80
[8] = dose: 200.0 mg/kg/injection, schedule: Q01DX005 (ip), vehicle: Klucel (hydroxypropylcellulose) (HPC)
[9] = dose: 100.0 mg/kg/injection, schedule: Q01DX005 (ip), vehicle: saline with Tween-80
[10] = dose: 200.0 mg/kg/injection, schedule: Q01DX009 (ip), vehicle: saline with Tween-80

## O=CC(CO)CC(C=O)n1cnc2c(=O)[nH]cnc21 (configuration not stated)
dose: 25.0 mg/kg/injection, schedule: Q01DX005 (ip), vehicle: saline
  T/C: 98, 115, 118, 127 % of control
dose: 37.5 mg/kg/injection, schedule: Q01DX005 (ip), vehicle: saline
  T/C: 132 % of control
dose: 50.0 mg/kg/injection, schedule: Q01DX005 (ip), vehicle: saline
  T/C: 120, 121, 131, 133 % of control
dose: 75.0 mg/kg/injection, schedule: Q01DX005 (ip), vehicle: saline
  T/C: 144 and 146 % of control
dose: 100.0 mg/kg/injection, schedule: Q01DX005 (ip), vehicle: saline
  T/C: 134 (2×), 138 [9 of 10 alive], 156 % of control
[1]
  T/C: 131, 134, 137, 185 % of control
dose: 400.0 mg/kg/injection, schedule: Q01DX005 (ip), vehicle: saline
  T/C: 148, 150, 156, 191 % of control
dose: 600.0 mg/kg/injection, schedule: Q01DX005 (ip), vehicle: saline
  survivor count: 0 of 6 and 1 of 6

## CCCCN(CCCC)CC(O)c1cc2ccc(C(F)(F)F)cc2c2cc(C(F)(F)F)ccc12 (configuration not stated)
dose: 50.0 mg/kg/injection, schedule: Q01DX009 (ip), vehicle: saline with Tween-80
  survivor count: 6 of 6

## CCCCC(CC)CN1CN(CC(CC)CCCC)CC(C)(N)C1 (configuration not stated)
[2]
  survivor count: 1 of 5

## O=[N+]([O-])c1ccc(S(=O)/N=C/c2ccccc2)c([N+](=O)[O-])c1 (configuration not stated)
[3]
  survivor count: 0 of 6 and 1 of 6
[4]
  survivor count: 0 of 6
[5]
  survivor count: 0 of 6

## CC1(C)CCC2(C(=O)OC3OC(CO)C(O)C(O)C3O)CCC3(C)C(=CCC4C5(C)CCC(OC6OC(CO)C(O)C(OC7OC(CO)C(O)C(O)C7O)C6O)C(C)(C)C5CCC43C)C2C1 (configuration not stated)
[6]
  survivor count: 5 of 5

## N#CC(C(=O)C(=O)Nc1ccc(Cl)cc1Cl)c1c(Cl)cccc1Cl (configuration not stated)
[7]
  survivor count: 1 of 6

## FC(F)(F)C1(C(F)(F)F)O[Te]2(OC1(C(F)(F)F)C(F)(F)F)OC(C(F)(F)F)(C(F)(F)F)C(C(F)(F)F)(C(F)(F)F)O2
dose: 25.0 mg/kg/injection, schedule: Q01DX005 (ip), vehicle: Klucel (hydroxypropylcellulose) (HPC)
  survivor count: 0 of 6
dose: 50.0 mg/kg/injection, schedule: Q01DX005 (ip), vehicle: Klucel (hydroxypropylcellulose) (HPC)
  survivor count: 0 of 6
[6]
  survivor count: 0 of 6
[8]
  survivor count: 0 of 6

## CCN=C(N)Nc1nc(C)c2cc(Cl)ccc2n1
[9]
  survivor count: 2 of 6
[2]
  survivor count: 0 of 6

## C=C(C)C(=NC(C)(C)C)Nc1ccccc1Cl
[10]
  T/C: 129 % of control

## CC(=O)OC(C)C(C)[N+](C)(C)C (configuration not stated)
dose: 200.0 mg/kg/injection, schedule: Q04DX002 (ip), vehicle: saline
  survivor count: 4 of 6
dose: 400.0 mg/kg/injection, schedule: Q04DX002 (ip), vehicle: saline
  survivor count: 1 of 6

## O=C(CCBr)N1CCN(C(=O)CCBr)CC1
dose: 20.0 mg/kg/injection, schedule: Q01DX010 (ip), vehicle: Klucel (hydroxypropylcellulose) (HPC)
  T/C: 149 % of control

## CCCCCCCCC(=O)CCCC
[10]
  survivor count: 6 of 6
dose: 400.0 mg/kg/injection, schedule: Q04DX003 (ip), vehicle: saline
  survivor count: 6 of 6

## O=C1NC(c2ccccc2)(c2ccccc2)C(=O)N1CCS
dose: 50.0 mg/kg/injection, schedule: Q04DX003 (ip), vehicle: Klucel (hydroxypropylcellulose) (HPC)
  T/C: 137 % of control

## CCCCCCCC(=O)OCC(=O)[C@]1(O)Cc2c(O)c3c(c(O)c2[C@@H](OC2CC(N)C(O)C(C)O2)C1)C(=O)c1c(OC)cccc1C3=O (some centres not stated)
dose: 0.5 mg/kg/injection, schedule: Q01DX009 (ip), vehicle: saline with Tween-80
  T/C: 136 % of control
dose: 1.0 mg/kg/injection, schedule: Q01DX009 (ip), vehicle: saline with Tween-80
  T/C: 136 % of control
dose: 8.0 mg/kg/injection, schedule: Q01DX009 (ip), vehicle: saline with Tween-80
  survivor count: 10 of 10
dose: 8.0 mg/kg/injection, schedule: Q01DX009 (ip), vehicle: water
  survivor count: 5 of 6

## CC(=O)CC(C)=O.CCN(CC)CC[C-]=O.[Pd+2]
dose: 50.0 mg/kg/injection, schedule: Q04DX003 (ip), vehicle: other
  survivor count: 0 of 4
dose: 100.0 mg/kg/injection, schedule: Q04DX003 (ip), vehicle: other
  survivor count: 0 of 4
dose: 200.0 mg/kg/injection, schedule: Q04DX003 (ip), vehicle: other
  survivor count: 0 of 4

## COc1ccc(C(=O)Cc2cc(OC)c(OC)cc2Br)cc1OC
dose: 50.0 mg/kg/injection, schedule: Q01DX005 (ip), vehicle: saline with Tween-80
  survivor count: 6 of 6
[9]
  survivor count: 6 of 6

## COc1ccc2c(c1)nnn2C(=O)/C=C/c1ccccc1
dose: 100.0 mg/kg/injection, schedule: Q01DX009 (ip), vehicle: saline with Tween-80
  survivor count: 6 of 6
[10]
  survivor count: 6 of 6

## Cc1nccc2cccc(CNC(C)C)c12
dose: 400.0 mg/kg/injection, schedule: Q01DX001 (ip), vehicle: saline
  survivor count: 0 of 6

## CCOC(=O)C1=C(C)O/C(=C/c2ccco2)C1=O
[3]
  survivor count: 6 of 6
[5]
  survivor count: 2 of 6

## Nc1ccc2c(NCCCCCCCCNc3c4ccccc4nc4cc(N)ccc34)c3ccccc3nc2c1
dose: 0.32 mg/kg/injection, schedule: Q01DX009 (ip), vehicle: other
  T/C: 141 % of control
dose: 0.63 mg/kg/injection, schedule: Q01DX009 (ip), vehicle: other
  T/C: 141 % of control
dose: 10.0 mg/kg/injection, schedule: Q01DX009 (ip), vehicle: other
  T/C: 149 % of control

## CC1CCC(SC2CC(=O)CCC2=O)CC1 (configuration not stated)
[2]
  survivor count: 1 of 5
dose: 400.0 mg/kg/injection, schedule: Q01DX005 (ip), vehicle: saline with Tween-80
  survivor count: 0 of 5

## NCC(=O)NC1(C(=O)O)CCCC1
dose: 100.0 mg/kg/injection, schedule: Q01DX009 (ip), vehicle: saline
  T/C: 134 % of control

## O=C1C2(Cl)C3CCC4C5CCC3C1(Cl)C5(Cl)C42Cl (configuration not stated)
dose: 400.0 mg/kg/injection, schedule: Q04DX002 (ip), vehicle: saline with Tween-80
  survivor count: 3 of 6

## Cc1c(CN2CCOC(c3ccccc3)C2C)c(=O)n(-c2ccccc2)n1C (configuration not stated)
[5]
  survivor count: 0 of 6

## OC(CI)C(O)C(O)C(O)CI (configuration not stated)
dose: 300.0 mg/kg/injection, schedule: Q01DX009 (ip), vehicle: saline with Tween-80
  T/C: 140 % of control

## OCC[Se][Se]CCO
dose: 5.0 mg/kg/injection, schedule: Q01DX009 (ip), vehicle: Klucel (hydroxypropylcellulose) (HPC)
  survivor count: 0 of 6
dose: 10.0 mg/kg/injection, schedule: Q01DX009 (ip), vehicle: Klucel (hydroxypropylcellulose) (HPC)
  survivor count: 0 of 6
dose: 20.0 mg/kg/injection, schedule: Q01DX009 (ip), vehicle: Klucel (hydroxypropylcellulose) (HPC)
  survivor count: 0 of 6
[3]
  survivor count: 0 of 6
[4]
  survivor count: 0 of 6
[5]
  survivor count: 0 of 6

## N#Cc1nnc2cc(-c3ccccc3)nn2c1-c1ccco1
dose: 240.0 mg/kg/injection, schedule: Q01DX005 (ip), vehicle: Klucel (hydroxypropylcellulose) (HPC)
  survivor count: 6 of 6

## O=C(O)/C=N/NP(=O)(Oc1ccccc1)Oc1ccccc1
dose: 25.0 mg/kg/injection, schedule: Q01DX009 (ip), vehicle: distilled water + Tween-80
  survivor count: 5 of 6

## CC(NCc1ccccc1)[Si](C)(C)C (configuration not stated)
[2]
  survivor count: 0 of 6

## O=[N+]([O-])c1cccc(C(Nc2nncs2)Nc2nncs2)c1
[6]
  T/C: 126 % of control
[8]
  T/C: 129 % of control

## CCC1CCCC[N+]1(C)[B-](F)(F)F (configuration not stated)
[1]
  survivor count: 0 of 6

## CCN(CCO)CCc1cccc2ccccc12
[8]
  survivor count: 1 of 6

## NCCCCCC(CCN)SCC1OC(n2cnc3c(N)ncnc32)C(O)C1O (configuration not stated)
dose: 60.0 mg/kg/injection, schedule: Q01DX005 (ip), vehicle: saline with Tween-80
  survivor count: 0 of 6
dose: 120.0 mg/kg/injection, schedule: Q01DX005 (ip), vehicle: saline with Tween-80
  survivor count: 0 of 6
[7]
  survivor count: 0 of 6

## CCN(CC)CCCC(C)Nc1cc(/C=C/c2ccc(Cl)cc2)nc2cc(N(C)C)ccc12 (configuration not stated)
dose: 25.0 mg/kg/injection, schedule: Q01DX009 (ip), vehicle: Klucel (hydroxypropylcellulose) (HPC)
  survivor count: 1 of 6
[3]
  survivor count: 0 of 6
[4]
  survivor count: 0 of 6
[5]
  survivor count: 0 of 6

## O=c1sc2ccccc2nc1NNc1ccccc1
[2]
  survivor count: 6 of 6
